Results from PubChem BioAssay AID540256 (National Center for Advancing Translational Sciences (NCATS), 2011).
The whole screen tested about 300,000 compounds, of which about 3,700 (1.2%) were called active. This list was built around the results that the source calls inconclusive (neither active nor inactive); the mix of calls is not that of the screen. Calls come from the whole dose curve; tested in HEK293 cells. Where the call is inconclusive, the potency comes from a doubtful curve fit.

Assay: qHTS for Inhibitors of binding or entry into cells for Lassa Virus; note: nearly all actives have a fitted effect of over 50% in size
Details: Lassa virus pseudotype entry inhibition, cell reporter; activity change, negative = inhibition: at 37.9 µM (top of the series) unless noted
% is set by controls: 0 for no effect and ±100 for the full control effect; potency is the fitted concentration of half-maximal effect.

SMILES | Potency | activity change, negative = inhibition
Clc1cccc(-n2ncc3c(N4CCCCCC4)ncnc32)c1 | inconclusive: 6.31 µM [activator, single point] | –
Cn1c(=O)n(C)c2cc(N3CCCC3)c(NC(=O)Nc3ccccc3)cc21 | inconclusive: 15.8 µM [inhibitor, partial curve, poor fit] | –
Cc1cc(C(=O)N/N=C/c2cccc([N+](=O)[O-])c2)c2ccccc2n1 | – | inactive: -7.94%
CC(C)C/C(=N/O)c1cn(C)c2ccccc12 | active: 1.12 µM | –
CC(=CCO)CCO | inconclusive: 1.19 µM [activator, single point] | –
Cc1cccc(OCC(=O)Nc2ccc(N3CCCC3)cc2)c1C | – | inactive: 0.275%
CCCCc1nn2c(=O)cc(COC(=O)c3cccs3)nc2s1 | inconclusive: 7.08 µM [activator, partial curve, poor fit] | –
CCNc1sc(S(C)(=O)=O)nc1S(=O)(=O)c1ccc(C)cc1 | – | inactive: 7.31% [at 46.1 µM]
COCC(N)(c1ccccc1)c1nc2ccccc2n1C (configuration not stated) | inconclusive: 20.6 µM [inhibitor, partial curve] | –
Cc1ccc(CNC(=O)CN2C(=O)COc3ccccc32)cc1 | – | inactive: 3.9% [at 46.1 µM]
CCOC(=O)c1[nH]c(C)c(C(=O)c2ccc(C)cc2)c1C | – | inactive: -36.5% [at 14.3 µM]
Cc1ccccc1C(=O)N1N=C(c2ccc(NS(C)(=O)=O)cc2)CC1c1cccs1 (configuration not stated) | inconclusive: 10 µM [inhibitor, partial curve, poor fit] | –
COc1cccc(NC(=O)c2ccc3nsnc3c2)c1 | inconclusive: 1.78 µM [activator, partial curve, poor fit] | –
CCC(=O)N1c2ccccc2C(N(C(C)=O)c2ccccc2)CC1C (configuration not stated) | – | inactive: -6.07%
COc1cc(OC)c(C(=O)Oc2ccc3c(c2)OCO3)cc1OC | – | inactive: -3.06%
Cc1cccc(Nc2cc(C)nc3ccccc23)c1 | inconclusive: 7.94 µM [inhibitor, partial curve, poor fit] | –
CC(=O)c1ccc(NC2=NCCCS2)cc1 | inconclusive: 12.6 µM [activator, partial curve, poor fit] | –
CCOC(=O)C(=O)/C(=C\N(C)C)c1onc(-c2c(F)cccc2Cl)c1C(=O)OC | – | inactive: 1.61%
COc1ccccc1NC(=O)Oc1ccc(C(C)=O)cc1 | inconclusive: 1.3 µM [activator, partial curve, poor fit] | –
CCOC(=O)c1c(C)[nH]c(C)c1S(=O)(=O)N(C)CC(=O)N1CCN(c2cccc(Cl)c2)CC1 | inconclusive: 15.8 µM [inhibitor, single point] | –
Cn1nc(C(=O)OCC(=O)c2ccc[nH]2)c2ccccc2c1=O | – | inactive: -13.3%
Cc1nnsc1-c1c(C(=O)N2CCOCC2)c(C)nn1-c1ccc(Cl)cc1 | – | inactive: -10.3%
CC(C)c1ccc(NC2CCCN(C(=O)c3cscn3)C2)cc1 (configuration not stated) | inconclusive: 11.2 µM [activator, partial curve, poor fit] | –
CCCNC(=S)NNC(=O)c1cccs1 | – | inactive: 3.67% [at 46.1 µM]

SMILES | Potency | activity change, negative = inhibition
c1ccc(-c2c(-c3ccccc3)n(Cc3ccco3)c3ncnc(NCCCn4ccnc4)c23)cc1 | inconclusive: 17.8 µM [inhibitor, partial curve, poor fit] | –
CCOC(=O)N1CCC(NS(=O)(=O)c2cc3c(cc2Cl)NC(=O)CO3)CC1 | active: 1.83 µM | –
CC1CCN(S(=O)(=O)c2ccc3[nH]cc(C(=O)NCc4ccc(F)cc4)c(=O)c3c2)CC1 | inconclusive: 1.12 µM [inhibitor, full curve, poor fit] | –
N#Cc1c(NC(=O)c2ccc(N3CCOCC3)c([N+](=O)[O-])c2)sc2c1CCCC2 | inconclusive: 1.26 µM [inhibitor, single point] | –
CC(C)c1ccc(N(C(=O)c2csnn2)C(C(=O)NC2CCCC2)c2cccnc2)cc1 (configuration not stated) | active: 1.58 µM | –
O=C(OCC#CCSc1nc2ccccc2s1)c1ccco1 | – | inactive: 35.8% [at 14.3 µM]
CCc1ccc(C(=O)CN2C(=O)NC(C)(c3ccc(C)cc3)C2=O)cc1 (configuration not stated) | – | inactive: -8.94%
CCC1CCCCN1S(=O)(=O)c1ccc(NC(=O)CSc2ncccc2C(=O)O)cc1 (configuration not stated) | – | inactive: -0.214%
O=C(OCc1nnc(-c2ccc(Br)cc2)o1)c1ccco1 | – | inactive: 4%
CCOC(=O)/C=C/S(=O)(=O)c1ccc(NC(C)=O)cc1 | – | inactive: -27.3%
CCCCc1ccc(-c2ccc(Br)cc2)nc1 | inconclusive: 14.6 µM [inhibitor, single point] | –
Cn1c(N)c(C(=O)COC(=O)CSc2ccccc2)c(=O)n(C)c1=O | inconclusive: 35.5 µM [activator, single point] | –
Cc1ccccc1NC(=O)Nc1nnc(Cc2ccc([N+](=O)[O-])cc2)s1 | inconclusive: 35.5 µM [inhibitor, single point] | –
O=C(Nc1ccc(N2CCCC2)c(Cl)c1)c1cccs1 | inconclusive: 31.6 µM [inhibitor, single point] | –
Cc1ccc(OCCNC(=O)C2CC(=O)N(Cc3ccccc3)C2)cc1 (configuration not stated) | inconclusive: 1.26 µM [inhibitor, single point] | –
CCc1nc2ccc(C(=O)NCCc3ccc(OC)cc3OC)cc2nc1CC | – | inactive: 4.72% [at 46.1 µM]
COCCN1Cc2cccc(C(=O)Nc3cccc(-c4nc5ccccc5[nH]4)c3)c2C1=O | inconclusive: 5.62 µM [inhibitor, single point] | –
Cc1ccccc1Nc1nc(N)nc(CSc2nc3ccccc3c(=O)n2C)n1 | inconclusive: 20 µM [inhibitor, single point] | –
O=C(N/N=C/c1ccc([N+](=O)[O-])s1)c1ccccc1Br | inconclusive: 29.1 µM [inhibitor, single point] | –
CCC(C(=O)NCc1ccc2c(c1)CCN2C(=O)c1ccc(F)cc1)c1ccccc1 (configuration not stated) | inconclusive: 0.631 µM [inhibitor, full curve, poor fit] | –
CC(=NNc1nc2ccccc2s1)c1ccncn1 | inconclusive: 8.91 µM [inhibitor, partial curve, poor fit] | –
Cc1ccc(NC2=CC(=O)CC(C)(C)C2)c(N)c1 | – | inactive: 23.2%
COC(=O)c1cc(Cc2ccc(N)c(C(=O)OC)c2)ccc1N | inconclusive: 11.6 µM [inhibitor, partial curve, poor fit] | –

13 entries from above, as a markdown table.

| SMILES | Potency | activity change, negative = inhibition |
| --- | --- | --- |
| COc1ccccc1NC(=O)Oc1ccc(C(C)=O)cc1 | inconclusive: 1.3 µM [activator, partial curve, poor fit] | – |
| CCOC(=O)c1c(C)[nH]c(C)c1S(=O)(=O)N(C)CC(=O)N1CCN(c2cccc(Cl)c2)CC1 | inconclusive: 15.8 µM [inhibitor, single point] | – |
| Cn1nc(C(=O)OCC(=O)c2ccc[nH]2)c2ccccc2c1=O | – | inactive: -13.3% |
| Cc1nnsc1-c1c(C(=O)N2CCOCC2)c(C)nn1-c1ccc(Cl)cc1 | – | inactive: -10.3% |
| CC(C)c1ccc(NC2CCCN(C(=O)c3cscn3)C2)cc1 (configuration not stated) | inconclusive: 11.2 µM [activator, partial curve, poor fit] | – |
| CCCNC(=S)NNC(=O)c1cccs1 | – | inactive: 3.67% [at 46.1 µM] |
| c1ccc(-c2c(-c3ccccc3)n(Cc3ccco3)c3ncnc(NCCCn4ccnc4)c23)cc1 | inconclusive: 17.8 µM [inhibitor, partial curve, poor fit] | – |
| CCOC(=O)N1CCC(NS(=O)(=O)c2cc3c(cc2Cl)NC(=O)CO3)CC1 | active: 1.83 µM | – |
| CC1CCN(S(=O)(=O)c2ccc3[nH]cc(C(=O)NCc4ccc(F)cc4)c(=O)c3c2)CC1 | inconclusive: 1.12 µM [inhibitor, full curve, poor fit] | – |
| N#Cc1c(NC(=O)c2ccc(N3CCOCC3)c([N+](=O)[O-])c2)sc2c1CCCC2 | inconclusive: 1.26 µM [inhibitor, single point] | – |
| CC(C)c1ccc(N(C(=O)c2csnn2)C(C(=O)NC2CCCC2)c2cccnc2)cc1 (configuration not stated) | active: 1.58 µM | – |
| O=C(OCC#CCSc1nc2ccccc2s1)c1ccco1 | – | inactive: 35.8% [at 14.3 µM] |
| CCc1ccc(C(=O)CN2C(=O)NC(C)(c3ccc(C)cc3)C2=O)cc1 (configuration not stated) | – | inactive: -8.94% |
